According to publication PMC11079228:
These are yes or no findings as the source states them, for the method shown. Binding seen in cells or lysates may run through a third protein. A yes stands for co-enrichment or nearness to the bait. Other partners may have been found.

B1: DNM1 (protein, UniProt P21575 1-864)
chain: MGNRGMEDLIPLVNRLQDAFSAIGQNADLDLPQIAVVGGQSAGKSSVLENFVGRDFLPRGSGIVTRRPLVLQLVNSTTEYAEFLHCKGKKFTDFEEVRLEIEAETDRVTGTNKGISPVPINLRVYSPHVLNLTLVDLPGMTKVPVGDQPPDIEFQIRDMLMQFVTKENCLILAVSPANSDLANSDALKIAKEVDPQGQRTIGVITKLDLMDEGTDARDVLENKLLPLRRGYIGVVNRSQKDIDGKKDITAALAAERKFFLSHPSYRHLADRMGTPYLQKVLNQQLTNHIRDTLPGLRNKLQSQLLSIEKEVDEYKNFRPDDPARKTKALLQMVQQFAVDFEKRIEGSGDQIDTYELSGGARINRIFHERFPFELVKMEFDEKELRREISYAIKNIHGIRTGLFTPDLAFEATVKKQVQKLKEPSIKCVDMVVSELTSTIRKCSEKLQQYPRLREEMERIVTTHIREREGRTKEQVMLLIDIELAYMNTNHEDFIGFANAQQRSNQMNKKKTSGNQDEILVIRKGWLTINNIGIMKGGSKEYWFVLTAENLSWYKDDEEKEKKYMLSVDNLKLRDVEKGFMSSKHIFALFNTEQRNVYKDYRQLELACETQEEVDSWKASFLRAGVYPERVGDKEKASETEENGSDSFMHSMDPQLERQVETIRNLVDSYMAIVNKTVRDLMPKTIMHLMINNTKEFIFSELLANLYSCGDQNTLMEESAEQAQRRDEMLRMYHALKEALSIIGDINTTTVSTPMPPPVDDSWLQVQSVPAGRRSPTSSPTPQRRAPAVPPARPGSRGPAPGPPPAGSALGGAPPVPSRPGASPDPFGPPPQVPSRPNRAPPGVPSRSGQASPSRPESPRPPFDL
B2: DNM2 (protein, UniProt P39052 1-870)
chain: MGNRGMEELIPLVNKLQDAFSSIGQSCHLDLPQIAVVGGQSAGKSSVLENFVGRDFLPRGSGIVTRRPLILQLIFSKTEYAEFLHCKSKKFTDFDEVRQEIEAETDRVTGTNKGISPVPINLRVYSPHVLNLTLIDLPGITKVPVGDQPPDIEYQIKDMILQFISRESSLILAVTPANMDLANSDALKLAKEVDPQGLRTIGVITKLDLMDEGTDARDVLENKLLPLRRGYIGVVNRSQKDIEGRKDIRAALAAERKFFLSHPAYRHMADRMGTPHLQKTLNQQLTNHIRESLPTLRSKLQSQLLSLEKEVEEYKNFRPDDPTRKTKALLQMVQQFGVDFEKRIEGSGDQVDTLELSGGARINRIFHERFPFELVKMEFDEKDLRREISYAIKNIHGVRTGLFTPDLAFEAIVKKQVVKLKEPCLKCVDLVIQELISTVRQCTSKLSSYPRLREETERIVTTYIREREGRTKDQILLLIDIEQSYINTNHEDFIGFANAQQRSTQLNKKRAIPNQGEILVIRRGWLTINNISLMKGGSKEYWFVLTAESLSWYKDEEEKEKKYMLPLDNLKIRDVEKGFMSNKHVFAIFNTEQRNVYKDLRQIELACDSQEDVDSWKASFLRAGVYPEKDQAENEDGAQENTFSMDPQLERQVETIRNLVDSYVAIINKSIRDLMPKTIMHLMINNTKAFIHHELLAYLYSSADQSSLMEESAEQAQRRDDMLRMYHALKEALNIIGDISTSTVSTPVPPPVDDTWLQNTSSHSPTPQRRPVSSVHPPGRPPAVRGPTPGPPLIPMPVGATSSFSAPPIPSRPGPQNVFANNDPFSAPPQIPSRPARIPPGIPPGVPSRRAPAAPSRPTIIRPAEPSLLD
B3: PURA (protein, UniProt P86252 1-138)
chain: FLKIAEVGAGGNKLTLSMSVAVEFRDYLGDFIEHYAQLGPSQPPDLAQAQDEPRYYMDLKENQRGPGLGSTQGQTIALPAQGLIEFRLIDDYGVEEEPAELPEGTSLTVDNKRFFFDVGSNKVSEVKPTYRFGHTFCK
B4: FLOT2 (protein, UniProt Q9Z2S9 1-428)
chain: MGNCHTVGPNEALVVSGGCCGSDYKQYVFGGWAWAWWCISDTQRISLEIMTLQPRCEDVETAEGVALTVTGVAQVKIMTEKELLAVACEQFLGKNVQDIKNVVLQTLEGHLRSILGTLTVEQIYQDRDQFAKLVREVAAPDVGRMGIEILSFTIKDVYDKVDYLSSLGKTQTAVVQRDADIGVAEAERDAGIREAECKKEMLDVKFMADTKIADSKRAFELQKSAFSEEVNIKTAEAQLAYELQGAREQQKIRQEEIEIEVVQRKKQIAVEAQEILRTDKELIATVRRPAEAEAHRIQQIAEGEKVKQVLLAQAEAEKIRKIGEAEAAVIEAMGKAEAERMKLKAEAYQKYGDAAKMALVLEALPQIAAKISAPLTKVDEIVVLSGDNSKVTSEVNRLLAELPASVHALTGVDLSKIPLIKNATGAQV
B5: WDR1 (protein, UniProt Q5RKI0 1-606)
chain: MPYEIKKVFASLPQVERGVSKILGGDPKGDNFLYTNGKCVILRNIDNPAVADIYTEHAHQVVVAKYAPSGFYIASGDISGKLRIWDTTQKEHILKYEYQPFAGKIKDIAWTEDSKRIAVVGEGREKFGAVFLWDTGSSVGEITGHNKVINSVDIKQNRPYRLATGSDDNCAAFFEGPPFKFKFTIGDHSRFVNCVRFSPDGNRFATASADGQIFIYDGKTGEKVCALGGSKAHDGGIYAISWSPDSTHLLSASGDKTSKIWDVNVNSVVSTFPMGSNVLDQQLGCLWQKDHLLSISLSGYINYLDKNNPSKPLRVIKGHSKSIQCLTVHKNGGKSYIYSGSHDGHINYWDSETGENDSFSGKGHTNQVSRMTVDESGQLVSCSMDDTVRYTNLTLRDYSGQGVVKLDVQPKCVAVGPGGYTVVVCIGQIVLLKDQKKCFSIDNPGYEPEVVAVHPGGDTVAVGGSDGNVRVYSILGATLKDEGKLLEAKGPVTDLAYSHDGAFLAVCDASKVVTVFSVADGYSENNVFYGHHAKIVCLAWSPDNEHFASGGMDMMVYVWTLSDPETKVKIQDAHRLHHVSSLAWLDEHTLVTTSHDASVKEWTITY
B6: ATG7 (protein, UniProt Q641Y5 1-698)
chain: MGDPGLSKLQFAPFNSALDVGFWHELTQKKLNEYRLDEAPKDIKGYYYNGDSAGLPTRLTLEFSAFDMSAPTPARCCPAMGTLHNTNTLEAFKTADKKLLLEQSANEIWEAIKSGAALENPMLLNKFLLLTFADLKKYHFYYWFCCPALCLPESIPLIRGPVGLDQRLSPKQIQALEHAYDDLCRTEGVTALPYFLFKYDDDTVLVSLLKHYSDFFQGQRTKLTVGVYDPCNLTQHPGWPLRNFLVLAAHRWSGSFQSVEVLCFRDRTMQGARDVTHSIIFEVKLPEMAFSPDCPKAVGWEKNQKGGMGPRMVNLSGCMDPKRLAESSVDLNLKLMCWRLVPTLDLDKVVSVKCLLLGAGTLGCNVARTLMGWGVRHVTFVDNAKISYSNPVRQPLYEFEDCLGGGKPKALAAAERLQKIFPGVNASGFNMSIPMPGHPVNFSDVTMEQARRDVEQLEELIDSHDVIFLLMDTRESRWLPTVIAASKRKLVINAALGFDTFVVMRHGLKKPKQQGAGDLCPSHLVAPADLGSSLFANIPGYKLGCYFCNDVVAPGDSTRDRTLDQQCTVSRPGLAVIAGALAVELMVSVLQHPEGGYAIASSSDDRMNEPPTSLGLVPHQIRGFLSRFDNVLPVSLAFDKCTACSSKVLDQYEQEGFTFLAKVFNSSHSFLEDLTGLTLLHQETQAAEIWDMSDEETV
B7: LAMP2 (protein, UniProt P17046 27-411)
chain: LKLNLTDSKGTCLYAEWEMNFTITYEALKVNETVTITVPDKVTYNGSSCGDDKNGAKIMIQYGSTLSWAVNFTKEASQYFINNITLSYNTNDTKTFPGAVPKGILTVIIPVGSQLPLGVIFKCSSVLTFNLSPVVQHYWGIHLQAFVQNGTVSKHEQVCKEDKTATTVAPIIHTTVPSPTTTLTPTSIPVPTPTVGNYTISNGNATCLLATMGLQLNITEEKVPFIFNINPAITNFTGSCQPQTAQLRLNNSQIKYLDFIFAVKNEKRFYLKEVNVNMYLANGSAFHVSNNNLSFWDAPLGSSYMCNKEQVVSVSRTFQINTFNLKVQPFNVTKGEYSTAQDCSADEDNFLVPIAVGAALGGVLILVLLAYFIGLKRHHTGYEQF
B8: AIP (protein, UniProt Q5FWY5 1-330)
chain: MADLIARLREDGIQKRVIQEGRGELPEFQDGTKATFHFRTLHSDPEGSVIDDSRARGKPMELIIGKKFKLPVWETIVRTMREGETAQFLCDVKHTVLYPLVAKSLRNIAEGKDPLEGQRHCCGIAQMHEHSSLGHADLDALQQNPQPLIFHIEMLKVESPGTYQQDPWAMTDEEKAKAVPLIHQEGNRLYREGQVKEAAAKYYDAIACLKNLQMKEQPGSPDWIQLDLQITPLLLNYCQCKLVAQEYYEVLDHCSSILNKYDDNVKAYFKRGKAHAAVWNAQEAQADFAKVLELDPALAPVVSRELRALEARIRQKDEEDKARFRGIFSH
B9: PRDX4 (protein, UniProt Q9Z0V5 41-273)
chain: ESDDRFRTRENECHFYAGGQVYPGEVSRVSVADHSLHLSKAKISKPAPYWEGTAVINGEFKELKLTDYRGKYLVFFFYPLDFTFVCPTEIIAFGDRIEEFKSINTEVVACSVDSQFTHLAWINTPRRQGGLGPIRIPLLSDLNHQISKDYGVYLEDSGHTLRGLFIIDDKGVLRQITLNDLPVGRSVDETLRLVQAFQYTDKHGEVCPAGWKPGSETIIPDPAGKLKYFDKLN
B10: PSMA4 (protein, UniProt P21670 1-261)
chain: MSRRYDSRTTIFSPEGRLYQVEYAMEAIGHAGTCLGILANDGVLLAAERRNIHKLLDEVFFSEKIYKLNEDMACSVAGITSDANVLTNELRLIAQRYLLQYQEPIPCEQLVTALCDIKQAYTQFGGKRPFGVSLLYIGWDKHYGFQLYQSDPSGNYGGWKATCIGNNSAAAVSMLKQDYKEGEMTLKSALALAVKVLNKTMDVSKLSAEKVEIATLTRENGKTVIRVLKQKEVEQLIKKHEEEEAKAEREKKEKEQREKDK
B11: PSMA3 (protein, UniProt P18422 1-255)
chain: MSSIGTGYDLSASTFSPDGRVFQVEYAMKAVENSSTAIGIRCKDGVVFGVEKLVLSKLYEEGSNKRLFNVDRHVGMAVAGLLADARSLADIAREEASNFRSNFGYNIPLKHLADRVAMYVHAYTLYSAVRPFGCSFMLGSYSVNDGAQLYMIDPSGVSYGYWGCAIGKARQAAKTEIEKLQMKEMTCRDVVKEVAKIIYIVHDEVKDKAFELELSWVGELTKGRHEIVPKDVREEAEKYAKESLKEEDESDDDNM
B12: PSMA2 (protein, UniProt P17220 1-234)
chain: MAERGYSFSLTTFSPSGKLVQIEYALAAVAGGAPSVGIKAANGVVLATEKKQKSILYDERSVHKVEPITKHIGLVYSGMGPDYRVLVHRARKLAQQYYLVYQEPIPTAQLVQRVASVMQEYTQSGGVRPFGVSLLICGWNEGRPYLFQSDPSGAYFAWKATAMGKNYVNGKTFLEKRYNEDLELEDAIHTAILTLKESFEGQMTEDNIEVGICNEAGFRRLTPTEVRDYLAAIA
B13: PSMA5 (protein, UniProt P34064 1-241)
chain: MFLTRSEYDRGVNTFSPEGRLFQVEYAIEGHKLGSTAIGIQTSEGVCLAVEKRITSPLMEPSSIEKIVEIDAHIGCAMSGLIADAKTLIDKARVETQNHWFTYNETMTVESVTQAVSNLALQFGEEDADPGAMSRPFGVALLFGGVDEKGPQLFHMDPSGTFVQCDARAIGSASEGAQSSLQEVYHKSTTLKEAIKSSLIILKQVMEEKLNATNIELATVQPGQNFHMFTKEELEEVIKDI

The binders below were run against Huntingtin-interacting protein 1 (rat) (rat (endogenous in rat FLS)) (assay: affinity purification with mass spectrometry; rabbit anti-rat-HIP1 antibody (20 μg per sample) on Dynabeads M-270 Epoxy; total lysates of rat FLS (one DA and one R6 cell line, each in triplicate), starved 24 h, then PDGFβ 100 ng/mL 30 min; lysis in water with protease and phosphatase inhibitors by three freeze-thaw cycles; elution with 8 M urea, LysC and trypsin, nano-LC-MS/MS, label-free quantitation).

Q: With B1 as the binder, how does the binding read?
A: binds

Q: With B2 as the binder, how does the binding read?
A: binds

Q: With B3 as the binder, how does the binding read?
A: binds

Q: B4 was tested. Which binding did it give?
A: binds

Q: Which binding does the source give for B5 here?
A: binds

Q: For B6, which binding is on record?
A: binds

Q: With B7 as the binder, how does the binding read?
A: binds

Q: How did the binding turn out when B8 was run?
A: binds

Q: Which binding does the source give for B9 here?
A: binds

Q: With B10 as the binder, how does the binding read?
A: binds

Q: How did the binding turn out when B11 was run?
A: binds

Q: How did the binding turn out when B12 was run?
A: binds

Q: B13 was tested. Which binding did it give?
A: binds
